Measurements reported in publication doi:10.1101/2024.04.02.587738.
These are yes or no findings as the source states them, for the method shown. In cells and extracts the contact can be indirect. Here binding means that the protein was enriched with, or labelled near, the bait; the list need not be complete. Tags and fused reporters may be left off the sequences shown.

Target: T1, HA-tagged COA8 (Cytochrome c Oxidase Assembly factor 8) (human) (UniProt Q96IL0)
T1 sequence: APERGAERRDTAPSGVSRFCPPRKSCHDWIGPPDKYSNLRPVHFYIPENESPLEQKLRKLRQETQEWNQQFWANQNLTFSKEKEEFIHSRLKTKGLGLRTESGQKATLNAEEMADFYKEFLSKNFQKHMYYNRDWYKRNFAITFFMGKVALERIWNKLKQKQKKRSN
Assay: affinity purification with mass spectrometry

With COX10, heme O synthase (enzyme) the binding was “binds”.
